{"sequences": {"note": "Amino acid sequences for entries named in this document (tags omitted).", "UniProt Q9JLQ0": "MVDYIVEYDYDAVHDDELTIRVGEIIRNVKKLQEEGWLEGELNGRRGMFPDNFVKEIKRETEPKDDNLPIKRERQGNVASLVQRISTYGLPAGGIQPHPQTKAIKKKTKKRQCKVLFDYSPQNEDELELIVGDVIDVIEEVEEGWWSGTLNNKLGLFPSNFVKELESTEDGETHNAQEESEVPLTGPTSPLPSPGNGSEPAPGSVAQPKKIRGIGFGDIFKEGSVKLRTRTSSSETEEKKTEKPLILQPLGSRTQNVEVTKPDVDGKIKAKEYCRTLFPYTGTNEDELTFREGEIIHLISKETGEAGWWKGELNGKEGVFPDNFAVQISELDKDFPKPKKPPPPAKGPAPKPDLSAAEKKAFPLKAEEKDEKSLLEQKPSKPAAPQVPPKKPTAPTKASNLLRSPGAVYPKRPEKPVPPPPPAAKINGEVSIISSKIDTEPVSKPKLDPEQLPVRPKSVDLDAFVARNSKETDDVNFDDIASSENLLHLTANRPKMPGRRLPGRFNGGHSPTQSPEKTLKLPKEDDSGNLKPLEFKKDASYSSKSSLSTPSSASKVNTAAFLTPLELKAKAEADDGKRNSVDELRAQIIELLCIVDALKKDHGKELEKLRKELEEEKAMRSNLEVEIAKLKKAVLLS"}, "source": "paper doi:10.1101/2023.01.13.523903", "about": "(bioRxiv, 2023)", "molecular_target": "T1, TKS4 of NIH 3T3 cells (mouse (endogenous in NIH3T3)) (UniProt A2AAY5)", "T1 sequence": "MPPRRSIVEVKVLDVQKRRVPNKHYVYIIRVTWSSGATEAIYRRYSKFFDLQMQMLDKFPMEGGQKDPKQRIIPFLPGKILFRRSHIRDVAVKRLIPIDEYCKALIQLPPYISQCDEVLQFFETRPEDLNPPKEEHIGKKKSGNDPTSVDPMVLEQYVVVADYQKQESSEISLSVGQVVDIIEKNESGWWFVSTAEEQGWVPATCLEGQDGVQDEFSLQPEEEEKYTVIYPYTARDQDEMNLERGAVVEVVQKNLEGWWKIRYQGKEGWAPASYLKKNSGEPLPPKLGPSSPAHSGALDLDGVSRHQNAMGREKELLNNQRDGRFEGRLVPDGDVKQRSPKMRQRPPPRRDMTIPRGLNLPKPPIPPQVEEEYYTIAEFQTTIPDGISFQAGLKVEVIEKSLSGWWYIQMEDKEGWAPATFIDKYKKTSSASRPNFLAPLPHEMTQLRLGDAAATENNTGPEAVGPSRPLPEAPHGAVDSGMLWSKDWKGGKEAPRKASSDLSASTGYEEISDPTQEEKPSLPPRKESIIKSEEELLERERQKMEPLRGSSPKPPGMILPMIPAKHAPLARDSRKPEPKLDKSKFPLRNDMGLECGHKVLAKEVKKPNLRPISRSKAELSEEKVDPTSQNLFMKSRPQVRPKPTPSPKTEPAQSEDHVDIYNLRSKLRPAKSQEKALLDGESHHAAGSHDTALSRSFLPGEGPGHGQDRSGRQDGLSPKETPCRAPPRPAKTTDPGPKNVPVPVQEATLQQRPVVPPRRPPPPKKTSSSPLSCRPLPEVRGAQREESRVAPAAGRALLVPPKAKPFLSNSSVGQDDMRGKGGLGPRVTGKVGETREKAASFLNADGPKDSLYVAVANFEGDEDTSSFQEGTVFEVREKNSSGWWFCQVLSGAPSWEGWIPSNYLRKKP", "assay": "affinity purification with mass spectrometry", "note": "Results are given in words; binding and its absence hold for the method and conditions named. In cells and extracts the contact can be indirect. These calls come from enrichment with a bait or labelling near it, and not all partners need be listed.", "data": [{"substance": "CD2AP of NIH 3T3 cells (from UniProt Q9JLQ0 1-637)", "values": [{"measurement": "binding", "value": "binds"}]}]}
